Reference: the supplement of paper PMC3334620
In all, about 33,000 sequences were measured (“E-score (-0.5 to 0.5)”: median about -0.0014, highest 2% from about 0.25 on). The list shows a part of the results.

molecular target: T1, Cad1 (UniProt P24813); assay: PBM E-score (8-mer binding enrichment) (E-score (-0.5 to 0.5)); higher = stronger / more preferred TF binding; conditions: protein concentration: 100 nM; construct: GST-full length
T1 sequence: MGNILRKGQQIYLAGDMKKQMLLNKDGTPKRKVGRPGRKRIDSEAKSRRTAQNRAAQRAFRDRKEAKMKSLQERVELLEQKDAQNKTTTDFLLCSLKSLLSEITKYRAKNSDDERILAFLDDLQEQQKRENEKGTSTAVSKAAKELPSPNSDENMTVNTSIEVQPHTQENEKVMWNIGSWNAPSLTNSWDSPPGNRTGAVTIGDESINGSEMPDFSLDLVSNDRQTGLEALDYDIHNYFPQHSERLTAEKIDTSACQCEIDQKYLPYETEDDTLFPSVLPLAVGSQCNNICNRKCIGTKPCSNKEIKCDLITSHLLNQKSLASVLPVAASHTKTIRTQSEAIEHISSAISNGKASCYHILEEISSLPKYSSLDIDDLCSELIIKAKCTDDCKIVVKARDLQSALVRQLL
How it was run: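 The E-score, a modified Wilcoxon-Mann-Whitney statistic, was computed by the Universal PBM Analysis Suite for every ungapped eight-base word pooled with its reverse complement. Scans behind it were normalised with masliner after bound GST-tagged yeast transcription factors were detected with fluorescent anti-GST. The proteins, at about 100-200 nM, had been applied to universal all-10-mer Agilent arrays made double-stranded by primer extension.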

Sequence | PBM E-score
AATTGGCT | 0.153
CGTTTAAC | 0.138
ACTAAACT | 0.028
ACCCGTTC | -0.0216
CCTGAGAG | -0.184
AAGCCACC | -0.258
CCCAACGG | -0.129
ATCGCGAC | 0.195
AGTTCGCA | 0.0914
AACCGCAT | 0
CGAAGGCG | -0.0563
GTGTCATA | 0.15
ATCTAACC | -0.0333
AGAGGACA | -0.107
GTCACAAA | -0.0316
AATTCTCT | -0.169
CCCCGGAG | -0.2
AAGGCGCT | -0.0149
CGCTGCAA | 0.113
CAGTTTGA | 0.0132
ACACCTGT | -0.0438
GCCGCTCC | -0.335
CGCTGACG | 0.0393
TATGTGCA | -0.0413
TATAAACA | 0.171

Sequence | PBM E-score
GCATCAGA | 0.14
GTACCCTA | -0.134
AACGTCTT | -0.0534
GTCTGCCA | 0.00273
ACGAAACA | 0.192
AAATTAAA | 0.257
ACTGGCCA | 0.0793
GTCTCCGA | 0.0599
AATCTGCC | -0.0433
CAGAACTA | 0.0111
CCCAACCC | -0.0388
ACGCCACT | -0.0112
TAAGCGGA | 0.138
CGTTAGCC | 0.0683
AGCTACCG | -0.0882
AGTGTACG | -0.022
ATCCAATA | 0.129
AAATAGGA | 0.18
AGAGGGTA | -0.198
AACTGCTG | -0.0149
CGCAGCCG | -0.0614
CCGTTCTC | -0.0492
CGCTCAAA | 0.0635
GATAATTA | 0.297
CACTGACG | -0.0752

Sequence | PBM E-score
CAAAAGCG | 0.0683
ACAAAACT | 0.21
GGAATTCA | 0.0713
CTTGGCAA | -0.00352
CAATGCTG | -0.0307
GGAGTACA | -0.15
CACGGGGG | -0.395
TGACCTCA | -0.169
CGACAAAC | 0.00348
AATTCAGA | 0.137
CAGATCTG | 0.113
AATTAAGT | 0.181
GGCACGAA | -0.0351
CGTCGTAC | 0.0283
ACTGGAGC | -0.309
CCAGCAGA | -0.0706
CTGCAAGC | -0.111
CTGATCAA | -0.00216
CATCGGAG | -0.181
GTGGGTGA | 0.0388
GAAACCGA | -0.0183
ACTGATGA | 0.103
CCTCAATC | 0.0973
ACATAATA | 0.178
CCAAAAGG | -0.175

Sequence | PBM E-score
GTTGATCA | 0.22
GAATAGAC | -0.0164
ACAGTGTG | 0.00567
AGCGTGTA | 0.0881
AATCTAGG | 0.00096
GTCGTATA | 0.0209
AAGGAGCT | -0.283
CTACATGC | -0.056
AATGCCAC | -0.204
ACTTGGAA | -0.116
ATCTGGCA | 0.0573
CCAGACGA | -0.138
ACGGCAAG | 0.0783
AAACTTCG | 0.142
AACAGACG | -0.0831
GCAAAGAC | 0.0345
ACAATAGT | 0.109
AAGAATAA | 0.146
ACATCGGC | 0.0889
GCATTCAC | 0.0305
ATCTCATG | 0.186
CCTTGTCG | -0.0826
GGGACATA | -0.0175
AGGGCTCC | -0.295
AGTTGGTA | 0.222

Random excerpt: three records from the list, in no set order.
Sequence | PBM E-score
AAGAATAA | 0.146
ACAATAGT | 0.109
ATCTCATG | 0.186

A section of the results above, for reference:
Sequence | PBM E-score
AAACTTCG | 0.142
AACAGACG | -0.0831

More entries:

Sequence | PBM E-score
GCGACCCC | -0.241
ACTTGGCG | -0.202
CGAAAGCG | -0.0744
AACTCAAG | 0.0044
ACCAGAGC | 0.0352
AATGGAAC | 0.207
AAGAATAG | 0.0296
CAGCTCAG | -0.0398
TGATCGAA | -0.0236
GTCGGCGA | -0.07
TATGCCGA | 0.0059
AATGGTGT | 0.0603
ATATTTCC | 0.00155
CCTGTCCC | -0.207
TAACGATA | 0.261
CGTGTCCA | -0.132
AGAACCTG | 0.0251
ATGTCGTA | -0.0186
GATTAAAC | 0.0432
ACCAAGTG | -0.225
AGGGCGGA | -0.192
AGGGACTC | -0.314
GGTACTCA | -0.0607
ATAGCGAT | 0.0789
GGTCGAAA | -0.176

Sequence | PBM E-score
GACCCTAC | -0.177
AGGGCCTC | -0.242
CGCGGTAA | 0.2
AAGGCTGT | -0.208
CCCTTCAC | -0.172
GGTTCGTA | 0.0714
CTGCCGTA | -0.155
GCACCATA | -0.00684
CTTTTGTC | 0.0635
TATCACAA | 0.135
TCTTTACA | 0.0741
CGCTCCAC | -0.092
CATTTTAG | 0.15
ACAGCCTC | -0.103
TAGAGCAA | -0.126
ATTCGAAG | 0.106
AGCTAAAA | -0.0268
ATGGCATG | 0.0153
CTATCGAC | -0.165
AGGGCTCA | -0.206
ACAGTACT | 0.0731
CTCCCGTC | 0.163
AATCGGGA | 0.0186
GCTCGGCC | -0.115
GCAAAGCA | -0.0559

Sequence | PBM E-score
AGTCAACT | -0.189
CTAGTGCA | 0.128
CTGTACGC | -0.0413
GCCGAAAA | 0.217
CCAAGCTC | -0.0587
CACAATAA | 0.137
CAGTATTC | 0.131
GCCAAACA | -0.0345
TGTGCCAA | 0.175
GCCGCACC | -0.0235
CCTGACAG | 0.0367
ACAAATTC | 0.152
CAATCGGC | 0.0586
ATGGAGGC | -0.197
CATACAGA | 0.206
ATGCCTGC | -0.073
CTACGTAA | 0.108
AAGTTCGA | 0.194
AGCGACAA | -0.177
AAGGTTTG | -0.00394
CTTCTGCC | -0.138
GTTTGGCA | 0.0649
